Measurements taken from the supplement of paper PMC4635364.
Structures can show the parent of a compound that is named as a salt. Some of the results follow. Repeats in this data set agree poorly, so a single value says little.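 ReNCell VM, a human fetal ventral-midbrain neural progenitor line, was differentiated without mitogens. Blinded raters scored images stained for doublecortin (early neurons) or tyrosine hydroxylase (dopaminergic neurons) against untreated wells (0 = no change). Scores were averaged across repeats and both raters, and compounds averaging 2 or more were selected as hits for retesting.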

System: ReNCell VM
Test: neuronal differentiation score (DCX+ cell fraction vs untreated, manual image score) (score (-3 to 3)); higher = more neuronal differentiation
Conditions: library: LOPAC; 2 uM; 2 weeks

Neuronal differentiation score, inactive:
CC1=C(CC(=O)O)c2cc(F)ccc2/C1=C\c1ccc(S(C)(=O)=O)cc1 [Sulindac sulfone] 0
COc1ccccc1N1CCN(CCCNc2c(C)c(=O)n(C)c(=O)n2C)CC1 [Urapidil, 5-Methyl-] 0
CCCCOC(=O)NS(=O)(=O)c1sc(CC(C)C)cc1-c1ccc(Cn2c(CC)nc3c(C)cc(C)nc32)cc1 0
CC1CNCCN1S(=O)(=O)c1cccc2cnccc12 (stereo not given) 0
COc1ccc(CCNC[C@@H](O)c2ccc(O)cc2)cc1OC [R(-)-Denopamine] 0
CCC(=O)N1CCN(C(=O)c2ccccc2)CC1 0
CN1CCc2cc(O)c(O)cc2C(c2ccccc2)C1 (stereo not given) 0

Same assay, conditions: library: Prestwick; 2 uM; 2 weeks

Neuronal differentiation score, inactive:
CC/C(=C(/CC)c1ccc(O)cc1)c1ccc(O)cc1 [Diethylstilbestrol] 0
CC(=O)c1ccc2c(c1)N(CCCN1CCC(CCO)CC1)c1ccccc1S2 [Piperacetazine] 0
CN(c1nccc(=O)[nH]1)C1CCN(c2nc3ccccc3n2Cc2ccc(F)cc2)CC1 [Mizolastine] 0
Nc1ccc(S(=O)(=O)NC(=O)c2ccccc2)cc1 [Sulfabenzamide] 0
O=C1O[C@H]([C@@H](O)CO)C(O)=C1O [Ascorbic acid] 0
CC(C)NCC(O)COc1ccc(COCCOC(C)C)cc1 (stereo not given) [Bisoprolol fumarate] 0
O=C1NCN(c2ccccc2)C12CCN(CCCC(c1ccc(F)cc1)c1ccc(F)cc1)CC2 [Fluspirilen] 0
CCN(CC)Cc1cc(Nc2ccnc3cc(Cl)ccc23)ccc1O [Amodiaquin dihydrochloride dihydrate] 0
CN(C)CCn1nnnc1SCC1=C(C(=O)O)N2C(=O)[C@@H](NC(=O)Cc3csc(N)n3)[C@H]2SC1 [Cefotiam hydrochloride] 0

Same assay, conditions: library: Spectrum; 2 uM; 2 weeks

Neuronal differentiation score, inactive:
OCC(O)C(O)C(O)C(O)C(O)CO (stereo not given) 0
O=c1cc(-c2ccc(O)cc2)oc2cc(O)cc(O)c12 -1
CC1CC2C3CCC4=CC(=O)C=CC4(C)C3(F)C(O)CC2(C)C1C(=O)CO (stereo not given) 0
O=C(O)CN(CCN(CC(=O)O)CC(=O)O)CCN(CC(=O)O)CC(=O)O 1
O=C(NCCCN1CCOCC1)c1ccc(Cl)cc1 0
COc1cc(O)cc(OC)c1OC 0
C#C[C@]1(O)CC[C@H]2[C@@H]3CCC4=Cc5oncc5C[C@]4(C)[C@H]3CC[C@@]21C 0
CN/C(=N\CCSCc1nc[nH]c1C)NC#N 0
O=c1oc2c(O)c(O)cc3c(=O)oc4c(O)c(O)cc1c4c23 0
O=C(/C=C/c1ccccc1)c1ccc(O[C@@H]2O[C@H](CO)[C@@H](O)[C@H](O)[C@H]2O)cc1O 0
COc1ccc2c(c1)O[C@H]1c3ccc(OC)cc3OC[C@@H]21 0
Cc1cc(O)cc(O)c1C(=O)O 0
Clc1ccc(CSC(Cn2ccnc2)c2ccc(Cl)cc2Cl)cc1 (stereo not given) 0
C[C@]12CC[C@@H]3c4ccc(OC(=O)c5ccccc5)cc4CC[C@H]3[C@@H]1CC[C@@H]2O 0
C1CCN2C[C@@H]3C[C@@H](CN4CCCC[C@@H]34)[C@H]2C1 0
CC1=Nc2ccc(Cl)cc2S(=O)(=O)N1 0
CC(=O)Nc1cccc(O)c1 0
CC1=C(C(=O)O)N2C(=O)[C@@H](NC(=O)[C@H](N)c3ccccc3)[C@H]2SC1 0
CCN(CC)Cc1cc(Nc2ccnc3cc(Cl)ccc23)ccc1O 0

Quoted at random: 2 compounds from above
Neuronal differentiation score, inactive:
CC1=C(C(=O)O)N2C(=O)[C@@H](NC(=O)[C@H](N)c3ccccc3)[C@H]2SC1 0
C[C@]12CC[C@@H]3c4ccc(OC(=O)c5ccccc5)cc4CC[C@H]3[C@@H]1CC[C@@H]2O 0
